In patent US20250281574A1 (priority 2022, published 2025):
At least one structure is not confirmed: it was looked up by name or label, or the drawing left a doubt.

Test system: SARS-CoV-2
Details: representative lung slices, FIG. 10

SMILES: CCC(CC)COC(=O)[C@H](C)N[P@](=O)(OC[C@H]1O[C@@](C#N)(c2ccc3c(N)ncnn23)[C@H](O)[C@@H]1O)Oc1ccccc1 [remdesivir]
- alveolar edema and inflammation (H&E stained lung tissue): decreased alveolar edema and inflammation
